Measured values reported in US6348573.
Results are given in words; binding and its absence hold for the method and conditions named. Binding seen in cells or lysates may run through a third protein. Some binding calls cover weakened binding; strength is not graded here. Tags and fused reporters may be left off the sequences shown.

Amino acid sequences for entries named in this document (tags omitted). A change or cut given only in a name is not applied to a line headed by its entry. Chains listed by the source or under a name are the forms on record and can include a tag or linker.
caspase-8, epitope-tagged (pcDNA3-caspase-8-AU1) (Q14790, form named): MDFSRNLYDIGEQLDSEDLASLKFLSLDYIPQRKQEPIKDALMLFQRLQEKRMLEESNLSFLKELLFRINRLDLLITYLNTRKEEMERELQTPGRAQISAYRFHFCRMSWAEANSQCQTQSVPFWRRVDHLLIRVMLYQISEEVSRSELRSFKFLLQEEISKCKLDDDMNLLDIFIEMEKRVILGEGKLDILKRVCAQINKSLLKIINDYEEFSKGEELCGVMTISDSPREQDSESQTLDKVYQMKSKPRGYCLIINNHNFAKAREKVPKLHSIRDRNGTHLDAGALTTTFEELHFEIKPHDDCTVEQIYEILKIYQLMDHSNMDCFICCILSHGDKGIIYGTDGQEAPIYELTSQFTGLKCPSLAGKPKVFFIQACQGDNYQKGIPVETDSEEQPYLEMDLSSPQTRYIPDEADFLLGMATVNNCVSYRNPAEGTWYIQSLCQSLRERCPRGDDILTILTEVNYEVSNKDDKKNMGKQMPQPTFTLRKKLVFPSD

Legend:
[1] = target: caspase-8, epitope-tagged (pcDNA3-caspase-8-AU1) (human) (UniProt Q14790); assay: co-immunoprecipitation from co-transfected 293T cells, immunoblot (FIG. 6)
[2] = target: T1, C. elegans CED-3, epitope-tagged (pcDNA3-Ced-3-Flag) (C. elegans) (UniProt P42573); assay: as above
T1 sequence (looked up): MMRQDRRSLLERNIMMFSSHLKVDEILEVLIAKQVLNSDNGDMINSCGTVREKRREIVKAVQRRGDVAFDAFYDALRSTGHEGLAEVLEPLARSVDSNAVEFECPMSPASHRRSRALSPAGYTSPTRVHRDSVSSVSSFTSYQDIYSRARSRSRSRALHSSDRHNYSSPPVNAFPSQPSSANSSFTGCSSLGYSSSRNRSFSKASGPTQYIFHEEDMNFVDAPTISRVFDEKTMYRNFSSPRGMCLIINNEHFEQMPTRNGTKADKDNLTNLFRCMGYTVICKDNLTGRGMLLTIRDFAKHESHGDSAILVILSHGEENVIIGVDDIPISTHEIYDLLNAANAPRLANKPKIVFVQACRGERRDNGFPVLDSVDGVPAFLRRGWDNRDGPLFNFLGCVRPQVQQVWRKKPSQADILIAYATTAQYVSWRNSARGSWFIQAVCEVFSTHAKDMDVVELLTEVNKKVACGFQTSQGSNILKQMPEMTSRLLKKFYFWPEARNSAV

[3] = target: T2, human caspase-2, epitope-tagged (human) (UniProt P42575); assay: as above
T2 sequence (looked up): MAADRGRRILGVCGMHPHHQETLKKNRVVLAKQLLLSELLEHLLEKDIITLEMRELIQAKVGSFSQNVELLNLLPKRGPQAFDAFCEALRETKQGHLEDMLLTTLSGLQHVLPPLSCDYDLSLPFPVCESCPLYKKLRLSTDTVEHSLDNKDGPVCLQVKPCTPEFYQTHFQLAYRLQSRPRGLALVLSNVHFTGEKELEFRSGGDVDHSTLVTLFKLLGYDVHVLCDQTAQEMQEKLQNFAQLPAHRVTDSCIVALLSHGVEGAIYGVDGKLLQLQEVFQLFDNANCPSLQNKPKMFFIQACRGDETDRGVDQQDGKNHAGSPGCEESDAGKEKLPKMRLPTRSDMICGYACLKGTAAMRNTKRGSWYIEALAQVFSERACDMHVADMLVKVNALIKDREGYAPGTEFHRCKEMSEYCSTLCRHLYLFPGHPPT

[4] = target: caspase-8, epitope-tagged (pcDNA3-caspase-8-AU1) (human) (UniProt Q14790); assay: co-immunoprecipitation from co-transfected 293T cells, immunoblot
[5] = target: T1, C. elegans CED-3, epitope-tagged (pcDNA3-Ced-3-Flag) (C. elegans); assay: as above
[6] = target: T2, human caspase-2, epitope-tagged (human); assay: as above

Measured: binding

B1: human ARC (Apoptosis Repressor with CARD domain), C-terminally Flag- or HA-tagged (protein, not shown: small tags and cut ends)
chain: MGNAQERPSETIDRERKRLVETLQADSGLLLDALLARGVLTGPEYEALDALPDAERRVRRLLLLVQGKGEAACQELLRCAQRTAGAPDPAWDWQHVGPGYRDRSYDPPCPGHWTPEAPGSGTTCPGLPRASDPDEAGGPEGSEAVQSGTPEEPEPELEAEASKEAEPEPEPEPELEPEAEAEPEPELEPEPDPEPEPDFEERDESEDS
binds: all assays above
